Numbering of substitutions follows the chain as printed. No constants are given. Whether binding was seen depends on the method and setting. Some results given as binding are weak or reduced against the parent protein; the word gives no strength.
Assays:
[1] = biological target: hTGFβⅡECD/Fc (R&D systems, Cat. No. 341-BR-050) (human) (UniProt P37173); assay: ELISA (legend of Fig. 6)
[2] = biological target: hTGFβⅡECD/Fc (R&D systems, Cat. No. 341-BR-050) (human) (UniProt P37173); assay: ELISA, purified scFv on coated TGFβRII ECD/Fc, anti-HA-HRP (Fig. 4)
[3] = biological target: hTGFβⅡECD/Fc (R&D systems, Cat. No. 341-BR-050) (human) (UniProt P37173); assay: ELISA, purified scFv on coated TGFβRII ECD/Fc, anti-HA-HRP (Fig. 6)
[4] = biological target: hTGFβⅡECD/Fc (R&D systems, Cat. No. 341-BR-050) (human) (UniProt P37173); assay: monoclonal ELISA, periplasmic scFv on coated TGFβRII ECD/Fc, anti-HA-HRP
[5] = biological target: hTGFβⅡECD/Fc (R&D systems, Cat. No. 341-BR-050) (human) (UniProt P37173); assay: competition ELISA, TGFβ ligand coated, scFv with TGFβRII ECD/Fc (Fig. 5)

Protein sequences, listed by entry. Tags and fused reporters are not part of them. Residues count along the entry.
UniProt P37173, residues 23-166: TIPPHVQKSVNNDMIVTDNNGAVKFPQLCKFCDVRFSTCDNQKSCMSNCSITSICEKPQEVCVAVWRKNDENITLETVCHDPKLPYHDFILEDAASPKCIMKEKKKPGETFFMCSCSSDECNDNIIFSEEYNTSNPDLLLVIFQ

Measured: binding

B1: TBR2-3 scFv (scFv, not shown: small tags and cut ends)
scFv: EVQLLESGGGLVQPGGPLRLSCAASGFTFSDYSMSWVRQAPGKGLEWVSSIYYDSGSIYYADSVKGRFTISRDNSKNTLYLQMNSLRAEDTAVYYCARRVTAFDYWGQGTLVTVSSGGGGSGGGGSGGGGSQSVLTQPPSASGTPGQRVTISCTGSSSNIGNNSVSWYQQLPGTAPKLLIYANSHRPSGVPDRFSGSKSGTSASLAISGLRSEDEADYYCGTWDSSLSGYVFGGGTKLTVLG
binds: all assays above

B2: TBR2-1 scFv (scFv, not shown: small tags and cut ends)
scFv: EVQLLESGGGLVQPGGSLRLSCAASGFTFSSYSMSWVRQAPGKGLEWVSWISYNGGSKYYADSVKGRFTISRDNSKNTLYLQMNSLRAEDTAVYYCARRIAAFDYWGQGTLVTVSSGGGGSGGGGSGGGGSQSVLTQPPSASGTPGQRVTISCTGSSSNIGSNAVSWYQQLPGTAPKLLIYANSHRPSGVPDRFSGSKSGTSASLAISGLRSEDEADYYCGTWDSSLSGYVFGGGTKLTVLG
not listed: [3]
binds: all other assays above

B3: TBR2-2 scFv (scFv, not shown: small tags and cut ends)
scFv: B2 scFv with G55D, G56R, K58V
binds: all assays above
